Measured values as given in patent US20240076391A1 (ONCURIOUS, published 2024).
Where a chain is given by its changes, count along the chain named. No constants are given. Whether binding was seen depends on the method and setting. Some results given as binding are weak or reduced against the parent protein; the word gives no strength.

By UniProt entry, the sequences of proteins in these tests, tags left out. Where a name states a change or a piece, a line headed by the entry shows the natural chain unless it says otherwise.
UniProt P51685: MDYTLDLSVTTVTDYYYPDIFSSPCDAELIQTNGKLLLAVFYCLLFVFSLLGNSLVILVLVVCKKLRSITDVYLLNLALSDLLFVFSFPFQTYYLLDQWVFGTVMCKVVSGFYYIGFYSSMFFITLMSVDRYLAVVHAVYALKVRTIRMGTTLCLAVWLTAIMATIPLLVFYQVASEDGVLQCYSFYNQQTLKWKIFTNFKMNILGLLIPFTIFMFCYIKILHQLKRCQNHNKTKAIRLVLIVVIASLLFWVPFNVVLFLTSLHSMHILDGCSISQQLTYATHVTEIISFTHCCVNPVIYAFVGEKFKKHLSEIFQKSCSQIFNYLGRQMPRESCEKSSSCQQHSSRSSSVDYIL

What was measured:
[1] = target: T1, human CCR8 (human, UniProt P51685 1-355); experiment: flow cytometry, human CCR8 stably expressed in HEK293 cells
T1 construct: also called hCCR8

[2] = target: T1, human CCR8; experiment: flow cytometry, epitope mapping on transfected HEK293 cells
[3] = target: N-terminal deletion human CCR8 (delta 18-3XHA) (human) (UniProt P51685); experiment: flow cytometry; an extracellular loop binder is defined in paragraph 224 as binding on hCCR8 cells and on human CCR8 (delta18-3XHA)
[4] = target: T1, human CCR8; experiment: flow cytometry competition with FLAG3-His6 tagged parental VHH-62 on hCCR8 cells

B1: VHH-62 (VHH, not shown: small tags and cut ends)
VHH: EVQLVESGGGLVQPGGSLRLSCAASGFSFSSFALSWYRQAPGKERELVARITTTGATNYADSVKGRFTISRDNAKNMGYLQMNSLRPEDTAVYYCNARARLSSVFDYWGQGTLVTVSS
For B1, the binding [1] was “binds”, the binding [2] was “binds” and the binding [3] was “binds”.

B2: VHH-81 (VHH, not shown: small tags and cut ends)
VHH: B1 VHH with E1D, M77T, G78V, S102W
With B2 the binding [4] was “binds”.
